Data published in PMC6052479.
Numbering of substitutions follows the chain as printed. These are yes or no findings as the source states them, for the method shown. Binding seen in cells or lysates may run through a third protein. For some of these results: A result given as binding can be weak or reduced; the word gives no strength. Sequences can lack the tags named with a protein.

What was measured:
HA-STN1 [1] = molecular target: T1, HA-STN1 (UniProt Q9H668); assay: co-IP; Flag-CTC1, HA-STN1 or Myc-TEN1 each expressed by itself in HEK293T cells; crude lysates, TEB150 buffer, overnight 4°C; blot for endogenous DNA Pol-α (Figure 7a)
T1 sequence: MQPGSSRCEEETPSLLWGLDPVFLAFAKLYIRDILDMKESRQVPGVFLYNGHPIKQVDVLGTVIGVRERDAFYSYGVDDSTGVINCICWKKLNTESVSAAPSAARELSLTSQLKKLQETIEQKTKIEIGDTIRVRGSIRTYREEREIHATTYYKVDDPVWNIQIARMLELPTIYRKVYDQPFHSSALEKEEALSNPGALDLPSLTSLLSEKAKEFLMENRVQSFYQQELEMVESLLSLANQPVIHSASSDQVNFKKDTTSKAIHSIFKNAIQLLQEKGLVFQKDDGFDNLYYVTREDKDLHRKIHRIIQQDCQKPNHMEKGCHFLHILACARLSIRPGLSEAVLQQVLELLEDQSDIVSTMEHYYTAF

HA-STN1 [2] = molecular target: T1, HA-STN1; assay: co-IP; HA-STN1 and Myc-TEN1 co-expressed (S:T) in HEK293T cells, no Flag-CTC1; crude lysates, TEB150 buffer, overnight 4°C; blot for endogenous DNA Pol-α (Figure 7a)
HA-STN1 [3] = molecular target: T1, HA-STN1; assay: co-IP; Flag-CTC1 (WT or L1142H), HA-STN1 and Myc-TEN1 co-expressed in HEK293T cells; crude lysates, TEB150 buffer, overnight 4°C; blot for endogenous DNA Pol-α (Figures 7a, 7b)
[4] = molecular target: T2, Flag-CTC1^(A227V; V259M) double mutant (human) (UniProt Q2NKJ3); assay: co-IP; Flag-CTC1 (WT or mutant) together with HA-STN1, no Myc-TEN1; antibody cross-linked sepharose beads incubated with crude cell lysates in TEB150 buffer (50 mM Hepes pH 7.3, 150 mM NaCl, 2 mM MgCl2, 5 mM EGTA, 0.5% Triton X-100, 10% glycerol) overnight at 4°C; immunoblot; endogenous DNA Pol-α (Figures 1f, 5a, 6a, 7a, 7b)
T2 sequence: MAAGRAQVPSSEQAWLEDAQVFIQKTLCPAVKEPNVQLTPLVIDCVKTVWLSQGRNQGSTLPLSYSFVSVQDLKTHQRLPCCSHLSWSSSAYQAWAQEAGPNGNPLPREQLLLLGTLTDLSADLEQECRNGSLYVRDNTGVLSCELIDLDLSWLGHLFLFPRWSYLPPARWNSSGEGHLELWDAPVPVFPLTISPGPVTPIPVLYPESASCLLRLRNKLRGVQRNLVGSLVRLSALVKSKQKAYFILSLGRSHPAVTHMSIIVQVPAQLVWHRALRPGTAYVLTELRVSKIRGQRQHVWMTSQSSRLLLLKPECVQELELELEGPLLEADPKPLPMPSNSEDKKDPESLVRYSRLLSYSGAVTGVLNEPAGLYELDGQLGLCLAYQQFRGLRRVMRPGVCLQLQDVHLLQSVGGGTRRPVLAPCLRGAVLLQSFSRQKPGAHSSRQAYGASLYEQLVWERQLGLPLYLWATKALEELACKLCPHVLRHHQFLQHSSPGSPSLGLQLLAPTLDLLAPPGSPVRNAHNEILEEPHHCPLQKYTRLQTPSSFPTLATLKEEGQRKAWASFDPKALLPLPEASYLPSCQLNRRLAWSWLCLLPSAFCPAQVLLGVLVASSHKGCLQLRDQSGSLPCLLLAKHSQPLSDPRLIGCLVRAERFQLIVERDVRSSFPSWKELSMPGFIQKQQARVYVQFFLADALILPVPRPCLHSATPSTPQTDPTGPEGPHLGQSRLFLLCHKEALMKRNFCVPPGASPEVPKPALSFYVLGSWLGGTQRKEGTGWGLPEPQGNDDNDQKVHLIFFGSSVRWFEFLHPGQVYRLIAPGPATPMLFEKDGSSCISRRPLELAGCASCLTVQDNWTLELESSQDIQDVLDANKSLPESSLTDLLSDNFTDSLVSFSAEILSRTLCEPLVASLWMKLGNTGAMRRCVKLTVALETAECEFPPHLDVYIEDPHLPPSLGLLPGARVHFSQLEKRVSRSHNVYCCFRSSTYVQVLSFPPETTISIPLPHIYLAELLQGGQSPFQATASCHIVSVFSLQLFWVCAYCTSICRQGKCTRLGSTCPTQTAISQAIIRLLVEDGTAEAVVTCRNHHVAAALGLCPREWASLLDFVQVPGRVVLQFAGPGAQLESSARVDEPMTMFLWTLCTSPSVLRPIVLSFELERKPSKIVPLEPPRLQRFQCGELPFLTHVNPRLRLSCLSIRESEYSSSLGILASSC

Flag-CTC1^A227V (human) = molecular target: T3, Flag-CTC1^A227V (human) (UniProt Q2NKJ3); assay: as above
T3 sequence: T2 sequence with M259V

Flag-CTC1^V259M (human) = molecular target: T4, Flag-CTC1^V259M (human) (UniProt Q2NKJ3); assay: as above
T4 sequence: T2 sequence with V227A

HA-STN1 [5] = molecular target: T1, HA-STN1; assay: as above

endogenous DNA Pol-α (human (endogenous in HEK293T)) (enzyme)
binding (HA-STN1 [1]): binds weakly | binding (HA-STN1 [2]): binds | binding (HA-STN1 [3]): binds | binding [4]: no binding | binding (Flag-CTC1^A227V (human)): no binding | binding (Flag-CTC1^V259M (human)): no binding | binding (HA-STN1 [5]): binds
